{
  "source": "patent US20110130449A1",
  "about": "“Assay for Monitoring Activity of Jmjd6” (Isis Innovation Limited, priority 2008, published 2011)",
  "target": "Jmjd6 (Homo sapiens, UniProt Q6NYC1)",
  "assay_type": "biochemical",
  "conditions": "100 μM inhibitor, substrate peptide d",
  "procedure": "Standard assays consisted of the substrate mixture: peptide (100 μM), 2OG (500 μM), ascorbate (100 μM) in Tris (50 mM, pH 7.5); and the enzyme mixture: FeNH4SO4 (100 μM) and Jmjd6 (10 μM) in Tris (50 mM, pH 7.5). The reaction was initiated by mixing the substrate and enzyme mixtures and incubating at 37° C. for 30-60 minutes. The reaction was quenched by adding TFA to a final concentration of 0.1% and incubating on ice. Hydroxylation of the peptide was analysed by a MALDI TOF micro MX mass spectrometer (Waters Micromass); where the assay mixture (1 μL), along with α-cyano-4-hydroxycinnamic acid MALDI (CHCA) matrix in 60% acetonitrile/0.1% TFA (1 μL), was spotted directly onto the target plate. To determine whether modification of peptide was Jmjd6-dependent assays were performed omitting either 2OG or Fe(II). To determine whether Jmjd6 was inhibited by N-oxaloylglycine (NOG), NOG (24 mM) was added to the substrate component of the assay system.\nTo determine the pH profile of Jmd6 standard peptide assays were performed over a pH range of 6 to 9. Buffers used were piperazine-N,N′-bis(ethanesulfonic acid) (PIPES) (pH 6.0 and 6.5), 4-(2-hydroxyethyl)-1-piperazineethanesulfonic acid (HEPES) (pH 7.0 to 8.0) and N,N-bis(2-hydroxyethyl) glycine (BICINE) (pH 8.5 and 9.0). […]",
  "note": "Some results were stated once for a whole list of compounds, not compound by compound. For at least one compound, name, drawing or mass did not settle the structure.",
  "data": [
    {"smiles": "O=C(O)C(=O)N[C@H](Cc1ccccc1)C(=O)O", "note": "[NOFD, N-oxalyl-D-phenylanine]", "values": [
      {"measurement": "inhibitory effect on Jmjd6 activity", "value": "< 20", "unit": "%"}
    ]}
  ]
}
